## Library compounds against nucleic acid targets

Data from the ROBIN nucleic acid binder screens, doi:10.1002/anie.202211358.

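Compounds were printed on reactive glass slides in duplicate spots, a dye-labelled oligonucleotide was laid over them, and the fluorescence left after washing was read. For the PreQ1, TPP and SAM-II riboswitches the laboratory earlier reported (doi:10.1038/s41467-019-09493-3) 1 µM RNA, 2 h, and a rule that included a mean Z-score above 3 (spot signal-to-noise against the whole library), a score well above that on a control array, and duplicate spots agreeing (coefficient of variation under 100). The data file gives only the calls; its cut-offs may differ, and compounds hitting several targets are kept. A missing hit is not proof of no binding, and a hit is not a measured affinity.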 Key: active = hit, inactive = tested without a hit. This is an unselected part of the compounds tested. A dash means that no call is listed here.

Oligonucleotides screened, 5′ to 3′:
SAM-II: SAM-II riboswitch RNA pseudoknot, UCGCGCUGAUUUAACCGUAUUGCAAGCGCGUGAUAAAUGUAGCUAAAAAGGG. Hit rate about 1% of about 21,000 compounds.
TPP: TPP riboswitch RNA three-way junction, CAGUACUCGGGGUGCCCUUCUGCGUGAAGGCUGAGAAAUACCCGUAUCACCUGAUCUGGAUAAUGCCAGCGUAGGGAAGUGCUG. Hit rate about 0.7% of about 24,000 compounds.
PreQ1: PreQ1 riboswitch RNA pseudoknot, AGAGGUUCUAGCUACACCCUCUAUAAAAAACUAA. From B. subtilis. Hit rate about 0.7% of about 24,000 compounds.

| Compound | SAM-II | TPP | PreQ1 |
|---|---|---|---|
| `CCOc1cccc(N2CC(=O)C(c3nc4ccccc4s3)=C2N)c1` | - | active | inactive |
| `CN(C)CCCOc1ccc(-c2cnc(N)cn2)cn1` | inactive | inactive | inactive |
| `CCOc1ccc(N2C(=O)c3ccccc3C2Nc2ccccc2OC)cc1` (stereo unspecified) | inactive | inactive | inactive |
| `CC1(C)Cc2c(sc(NC(=O)c3ccc(Cl)cc3Cl)c2C#N)C(C)(C)N1` | inactive | inactive | inactive |
| `CC1CCCN(c2nc3nonc3nc2Nc2ccccc2F)C1` (stereo unspecified) | inactive | inactive | inactive |
| `CCn1c(C2CCCNC2)nn(Cc2ncccn2)c1=O` (stereo unspecified) | inactive | inactive | inactive |
| `Cc1c(CNC(CC(C)C)c2ncnn2C)c2ccccc2n1CC(N)=O` (stereo unspecified) | inactive | inactive | inactive |
| `O=C(NCC1(O)CCCNC1)Nc1cc(F)cc(F)c1F` (stereo unspecified) | inactive | inactive | inactive |
| `CC(C)(CO)[C@@H](O)C(=O)NCCC(=O)O` | inactive | inactive | inactive |
| `CCOc1cc(C2C(C#N)=C(N)Oc3[nH]nc(C(C)(C)C)c32)ccc1O` (stereo unspecified) | inactive | inactive | inactive |
| `Cc1nc2sc(C(=O)Nc3cnc4ccccc4c3)c(N)c2c(C)c1C` | inactive | inactive | inactive |
| `CC(O)Cn1cc2c(c1-c1ccccc1Cl)c(=O)n(C)c(=O)n2C` (stereo unspecified) | inactive | inactive | inactive |
| `CN1CCCN(C[C@@H]2CN(c3nc(C(N)=O)cs3)C[C@@H]2CO)CC1` | inactive | inactive | inactive |
| `c1ccn(CCc2ccncc2)c1` | inactive | inactive | inactive |
| `O=C(NCc1ccc2c(c1)CCCC2)C1CCCNC1` (stereo unspecified) | inactive | inactive | inactive |
| `CCOC(=O)c1nc(NCC(C)O)c2ccccc2n1` (stereo unspecified) | inactive | inactive | inactive |
| `Cc1ccc(Nc2cc(N3CCN(S(=O)(=O)c4ccc(C)cc4C)CC3)nc(C)n2)cc1` | - | inactive | inactive |
| `CCOc1ccc(-c2noc(-c3nnn(-c4ccccc4C)c3N)n2)cc1` | - | inactive | inactive |
| `COc1ccc(-c2[nH]c3c(C#N)cnn3c2NC2CCCC2)cc1` | - | inactive | inactive |
| `Cc1nc(N)nc(Nc2ccc(C#N)cc2)c1Br` | inactive | inactive | inactive |
| `CCC(O)Cn1nc(C2(c3ccccc3)CC2)nc1CCc1cnn(C)c1` (stereo unspecified) | inactive | inactive | inactive |
| `CC(O)[C@H](NC(=O)[C@@H]1CSSC[C@H](CC(=O)[C@H](N)Cc2ccccc2)C(=O)N[C@@H](Cc2ccc(O)cc2)C(=O)N[C@H](Cc2c[nH]c3ccccc23)C(=O)N[C@@H](CCCCN)C(=O)N1)C(N)=O` (stereo partly specified) | inactive | inactive | inactive |
| `COCCN(C)C[C@@H]1CN(C(=O)C2=Cc3cc(Cl)ccc3OC2)C[C@@H]1CO` | inactive | inactive | inactive |
| `CNc1cc(C)nc2c(C)c(-c3ccc(C)cc3)nn12` | - | inactive | inactive |
| `CN[C@@H]1[C@@H](O)[C@@H](O[C@@H]2[C@@H](O)[C@H](O[C@H]3O[C@H](CN)[C@@H](O)[C@H](O)[C@@H]3O)[C@@H](N)C[C@@H]2NC(=O)[C@@H](O)CN)OC[C@]1(C)O` | inactive | inactive | inactive |
| `CC(C)Nc1ncc(C(=O)N2CCCCC2CO)cn1` (stereo unspecified) | inactive | inactive | inactive |
| `CCOc1ccccc1Nc1nc2ccccc2c2nnc(CC)n12` | inactive | inactive | inactive |
| `Fc1ccc(Nc2ccnc3ccc(F)cc23)cc1` | inactive | inactive | inactive |
| `Cc1cnc(Nc2ccc(F)cc2Cl)nc1-c1c[nH]c(C(=O)N[C@H](CO)c2cccc(Cl)c2)c1` | inactive | inactive | inactive |
| `Cc1csc2c(NCc3cccnc3N3CCCC(O)C3)ncnc12` (stereo unspecified) | inactive | inactive | inactive |
| `COC(=O)CNc1cc(C)nc2nc(Cc3ccccc3)nn12` | - | inactive | inactive |
| `CCOC(=O)c1ccc(Nc2c(-c3ccc(N(C)C)cc3)nc3cnccn23)cc1` | - | inactive | inactive |
| `CCOC(=O)/C(C#N)=C1\SS/C(=C(/C#N)C(=O)OCC)S1` | inactive | inactive | inactive |
| `O=C(c1ccccc1)c1oc2ccccc2c1CN1CCOCC(O)C1` (stereo unspecified) | inactive | inactive | inactive |
| `Cc1cc(Nc2cccc(C(F)(F)F)c2)c2ccccc2n1` | inactive | inactive | inactive |
| `CCc1nc(C)c(C(=O)N2C[C@@H](CN3CCOCC3)[C@@H](CO)C2)o1` | inactive | inactive | inactive |
| `Cc1ccc(C)c(NC2OC(=O)c3ccccc32)c1` (stereo unspecified) | inactive | inactive | inactive |
| `Cc1ncc2c(c1CNC(=O)CC1CCc3ccccc31)CCNC2` (stereo unspecified) | inactive | inactive | inactive |
| `C=CCNc1ncnc2c1sc1nc3c(cc12)COC(C)(C)C3` | inactive | inactive | inactive |
| `Nc1c(-c2ccccc2)c(Cc2ccccc2)nc2ccccc12` | inactive | inactive | inactive |
| `O=C(c1cccc(-n2cnnc2)c1)N1CCC(C(O)c2ccccn2)CC1` (stereo unspecified) | inactive | inactive | inactive |
| `CCn1c(SCCO)nc2c(c1=O)C1(CCCCC1)Cc1ccccc1-2` | - | inactive | inactive |
| `Nc1n[nH]c(SC(C(=O)NCc2ccccc2)c2ccccc2)n1` (stereo unspecified) | inactive | active | inactive |
| `C=CCNc1nc2c(c(=O)n(C)c(=O)n2C)n1CCCCCC` | inactive | inactive | inactive |
| `CN(CCO)C[C@@H]1CN(Cc2cccc3c2sc2ccccc23)C[C@@H]1CO` | active | inactive | inactive |
| `N[C@H]1CN(C(=O)c2cc(S(N)(=O)=O)ccc2F)C[C@@H]1c1ccccc1` | inactive | inactive | inactive |
| `CC(C)Cc1cc(C(=O)N2CCC3(CC2)[C@H](O)C[C@@H]3OCCO)on1` | inactive | inactive | inactive |

4 of the entries, repeated:

Compound,SAM-II,TPP,PreQ1
Cc1nc(N)nc(Nc2ccc(C#N)cc2)c1Br,inactive,inactive,inactive
CCOC(=O)c1ccc(Nc2c(-c3ccc(N(C)C)cc3)nc3cnccn23)cc1,-,inactive,inactive
CC1CCCN(c2nc3nonc3nc2Nc2ccccc2F)C1 (stereo unspecified),inactive,inactive,inactive
Nc1c(-c2ccccc2)c(Cc2ccccc2)nc2ccccc12,inactive,inactive,inactive